Experimental data taken from patent CN110305214A.
No constants are given. Whether binding was seen depends on the method and setting. Some entries that bind do so weakly or less than the wild type. Values belong to the binder of their own block, whether it stands above or below them.

Molecular target: 食蟹猴CD47 (cynomolgus monkey CD47) (cynomolgus monkey)
Assay: FACS on cynomolgus PBMC

binding: binds
B1: W3452-1.164.16-z11-IgG1K (antibody, V domains shown)
VH: QVQLQESGPGLVKPSETLSLTCTVSGFSLTNYHVYWIRQPPGKGLEWIGVMWNHGDTSYNSPLKSRVTISVDTSKSQFSLKLSSVTAADTAVYYCARGGYVPDYWGQGTMVTVSS
VL: DIVMTQSPLSLPVTPGEPASISCRSSQSLVHSNAKTYLHWYLQKPGQSPQLLIYRVSNRFSGVPDRFSGSGSGTDFTLKISRVEAEDVGVYYCLQTTHFPYTFGQGTKLEIK

binding: binds
B2: W3452-2.683.2-z27-IgG1L (antibody, V domains shown)
VH: EVQLVESGGGLVQPGRSLRLSCAASGFTFSTYGMAWVRQAPGKGLEWVSSISTSGGSTYYRDSVQGRFTISRDNAKSSLYLQMNSLRAEDTATYYCTTKGGRTYRLAYWGQGTLVTVSS
VL: SYELMQPPSVSVSPGQTARITCSGIELSNKYAHWYQQKPGQAPVEVMYKDSERPSGIPERFSGSRSGTTVTLTISGVQAEDEADYYCLSTNSDDDLPVFGGGTKLTVL

binding: binds
B3: W3452-2.683.2-z27-IgG4PE,L (antibody, V domains shown)
VH: B2 VH
VL: B2 VL
